Binding data for one substance are collected here from paper PMC8329784.

Protein sequences, listed by entry. Tags and fused reporters are not part of them.
UniProt Q16665: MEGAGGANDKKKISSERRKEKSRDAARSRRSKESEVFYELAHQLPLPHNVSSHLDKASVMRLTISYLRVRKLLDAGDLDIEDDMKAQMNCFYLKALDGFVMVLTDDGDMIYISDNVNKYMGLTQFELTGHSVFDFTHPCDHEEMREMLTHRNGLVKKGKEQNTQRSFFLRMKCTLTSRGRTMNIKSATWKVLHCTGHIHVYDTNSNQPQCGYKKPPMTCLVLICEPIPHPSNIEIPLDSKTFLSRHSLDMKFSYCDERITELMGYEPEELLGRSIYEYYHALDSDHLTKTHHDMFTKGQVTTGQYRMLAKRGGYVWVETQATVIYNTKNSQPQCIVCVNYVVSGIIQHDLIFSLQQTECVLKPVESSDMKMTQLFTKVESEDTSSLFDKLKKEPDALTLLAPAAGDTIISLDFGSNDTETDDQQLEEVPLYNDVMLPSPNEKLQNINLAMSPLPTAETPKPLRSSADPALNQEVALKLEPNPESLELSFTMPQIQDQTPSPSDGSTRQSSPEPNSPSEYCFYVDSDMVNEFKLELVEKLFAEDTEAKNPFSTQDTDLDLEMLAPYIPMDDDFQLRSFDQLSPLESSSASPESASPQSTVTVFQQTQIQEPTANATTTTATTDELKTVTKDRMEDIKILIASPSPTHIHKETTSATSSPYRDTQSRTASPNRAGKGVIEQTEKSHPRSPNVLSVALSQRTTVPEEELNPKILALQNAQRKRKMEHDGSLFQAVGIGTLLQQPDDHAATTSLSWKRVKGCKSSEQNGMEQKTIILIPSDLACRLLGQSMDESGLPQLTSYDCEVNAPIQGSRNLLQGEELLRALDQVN

For the assay, the target named is T1, friend leukemia integration 1 (FLI1) (human (endogenous in EA.hy926)) (UniProt Q01543).
T1 sequence: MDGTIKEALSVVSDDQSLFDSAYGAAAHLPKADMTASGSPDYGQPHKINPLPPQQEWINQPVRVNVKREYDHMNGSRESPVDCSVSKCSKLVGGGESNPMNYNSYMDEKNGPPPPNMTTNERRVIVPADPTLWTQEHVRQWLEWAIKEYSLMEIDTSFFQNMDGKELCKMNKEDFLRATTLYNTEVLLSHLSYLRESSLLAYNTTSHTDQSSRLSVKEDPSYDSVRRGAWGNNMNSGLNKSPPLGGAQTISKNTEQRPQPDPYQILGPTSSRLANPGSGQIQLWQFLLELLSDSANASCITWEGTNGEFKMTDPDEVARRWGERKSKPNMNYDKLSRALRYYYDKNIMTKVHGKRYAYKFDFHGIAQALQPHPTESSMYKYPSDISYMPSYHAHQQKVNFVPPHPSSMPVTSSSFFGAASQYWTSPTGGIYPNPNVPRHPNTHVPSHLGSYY
Briefly: co-IP; EA.hy926 cells with or without 16 h of hypoxia (1% O2); NP40 lysate, 1 mg protein, 1 μg anti‐FLI1 monoclonal antibody (MA1‐196) or homologous IgG overnight at 4 °C, Dynabeads Protein A, western blot for FLI1 and HIF‐1α. In general terms: Immunoblotting shows a protein as a band on a membrane.

These are yes or no findings as the source states them, for the method shown. Binding seen in cells or lysates may run through a third protein. Some binding calls cover weakened binding; strength is not graded here.

For “hypoxia‐inducible factor 1α (HIF‐1α) (from UniProt Q16665 1-826)”, the binding entry is given as “binds”.
